Source: the M2OR odorant receptor database
The entries are a selection whose mix differs from that of the whole data set. The calls were merged from several studies; some rest on single wells. Some of the results follow.

Chains of the proteins cited; added tags and fusions are not shown. A change or cut given only in a name is not applied to a line headed by its entry. Chains listed by the source or under a name are the forms on record and can include a tag or linker.
UniProt Q8NGI4: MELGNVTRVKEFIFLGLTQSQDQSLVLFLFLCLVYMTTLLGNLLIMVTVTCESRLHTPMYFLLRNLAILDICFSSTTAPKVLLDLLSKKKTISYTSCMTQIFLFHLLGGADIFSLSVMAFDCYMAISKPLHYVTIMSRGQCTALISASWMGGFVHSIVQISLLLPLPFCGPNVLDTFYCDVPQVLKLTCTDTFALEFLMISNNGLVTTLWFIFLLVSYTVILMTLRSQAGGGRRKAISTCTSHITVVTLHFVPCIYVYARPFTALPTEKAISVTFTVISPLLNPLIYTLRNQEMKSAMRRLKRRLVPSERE
UniProt Q8NGN0: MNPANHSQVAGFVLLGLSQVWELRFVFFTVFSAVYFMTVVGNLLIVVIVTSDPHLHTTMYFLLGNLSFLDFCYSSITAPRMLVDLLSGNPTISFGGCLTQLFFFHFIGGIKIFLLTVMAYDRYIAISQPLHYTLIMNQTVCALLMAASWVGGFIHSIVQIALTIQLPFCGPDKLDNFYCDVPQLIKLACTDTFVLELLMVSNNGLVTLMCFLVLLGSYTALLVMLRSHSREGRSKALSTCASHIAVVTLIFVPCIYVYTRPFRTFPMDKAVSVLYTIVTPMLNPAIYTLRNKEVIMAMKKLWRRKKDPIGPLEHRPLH
UniProt Q8NGE8: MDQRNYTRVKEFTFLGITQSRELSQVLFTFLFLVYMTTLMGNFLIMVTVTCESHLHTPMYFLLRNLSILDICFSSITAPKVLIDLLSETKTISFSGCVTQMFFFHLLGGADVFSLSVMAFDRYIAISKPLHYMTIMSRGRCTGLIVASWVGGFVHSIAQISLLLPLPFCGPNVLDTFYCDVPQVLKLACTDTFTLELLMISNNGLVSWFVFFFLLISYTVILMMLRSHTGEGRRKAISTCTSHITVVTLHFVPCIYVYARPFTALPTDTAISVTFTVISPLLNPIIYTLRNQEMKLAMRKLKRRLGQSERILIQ
OR4D2, as listed by the source: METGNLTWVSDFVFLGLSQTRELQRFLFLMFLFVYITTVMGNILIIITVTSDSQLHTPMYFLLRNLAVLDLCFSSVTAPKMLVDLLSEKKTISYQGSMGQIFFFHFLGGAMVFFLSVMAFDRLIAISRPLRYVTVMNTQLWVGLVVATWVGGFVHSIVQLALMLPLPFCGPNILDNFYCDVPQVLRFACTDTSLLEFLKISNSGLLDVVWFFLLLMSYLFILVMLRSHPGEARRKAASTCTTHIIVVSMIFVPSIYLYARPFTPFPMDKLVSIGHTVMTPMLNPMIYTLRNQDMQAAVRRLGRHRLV
OR4D6, as listed by the source: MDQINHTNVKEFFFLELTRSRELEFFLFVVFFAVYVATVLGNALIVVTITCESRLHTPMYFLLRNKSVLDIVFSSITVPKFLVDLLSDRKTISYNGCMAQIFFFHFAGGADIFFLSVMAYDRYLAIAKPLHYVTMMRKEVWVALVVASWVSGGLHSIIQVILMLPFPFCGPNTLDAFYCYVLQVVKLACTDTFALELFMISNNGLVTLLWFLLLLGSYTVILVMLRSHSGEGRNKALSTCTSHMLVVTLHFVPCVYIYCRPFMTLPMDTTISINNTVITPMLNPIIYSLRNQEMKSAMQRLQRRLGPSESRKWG
OR4D1, as listed by the source: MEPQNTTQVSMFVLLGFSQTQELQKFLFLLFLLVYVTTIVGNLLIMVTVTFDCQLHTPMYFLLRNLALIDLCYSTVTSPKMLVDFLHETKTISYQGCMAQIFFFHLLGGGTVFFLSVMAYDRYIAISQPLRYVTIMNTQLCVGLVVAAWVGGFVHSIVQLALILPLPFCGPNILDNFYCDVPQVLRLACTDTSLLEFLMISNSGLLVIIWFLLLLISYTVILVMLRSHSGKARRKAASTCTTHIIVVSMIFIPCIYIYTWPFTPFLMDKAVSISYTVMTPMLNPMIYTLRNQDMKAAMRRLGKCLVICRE

Key:
Settings in all cases: stereoisomer not certain
[1] = target: OR4D11 (Homo sapiens) (UniProt Q8NGI4)
Method in brief: (§1)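 Each entry records the cell line, G-protein, co-transfected protein and tags used. Methods varied with the source, often transient luciferase assays in mammalian cell lines. A receptor–molecule pair is called responsive (active) if the original authors judged its signal statistically different from baseline and non-responsive (inactive) otherwise.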

[2] = test system: OR4D1
Method in brief: as §1

[3] = test system: OR4D2
Method in brief: as §1

[4] = target: OR4D5 (Homo sapiens) (UniProt Q8NGN0)
Method in brief: as §1

[5] = test system: OR4D6
Method in brief: as §1

[6] = target: OR4D9 (Homo sapiens) (UniProt Q8NGE8)
Method in brief: as §1

[7] = test system: T1, OR4E2
T1 sequence (whole entry): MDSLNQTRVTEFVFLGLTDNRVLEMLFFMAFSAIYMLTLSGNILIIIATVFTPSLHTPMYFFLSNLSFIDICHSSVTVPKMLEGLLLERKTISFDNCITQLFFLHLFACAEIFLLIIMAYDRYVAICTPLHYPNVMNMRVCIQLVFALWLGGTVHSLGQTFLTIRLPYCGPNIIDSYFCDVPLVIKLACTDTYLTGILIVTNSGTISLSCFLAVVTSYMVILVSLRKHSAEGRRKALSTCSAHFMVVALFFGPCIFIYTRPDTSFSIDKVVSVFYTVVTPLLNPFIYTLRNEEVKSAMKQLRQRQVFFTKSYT
Method in brief: as §1

[8] = target: T2, OR4F15 (Homo sapiens) (UniProt Q8NGB8)
T2 sequence (whole entry): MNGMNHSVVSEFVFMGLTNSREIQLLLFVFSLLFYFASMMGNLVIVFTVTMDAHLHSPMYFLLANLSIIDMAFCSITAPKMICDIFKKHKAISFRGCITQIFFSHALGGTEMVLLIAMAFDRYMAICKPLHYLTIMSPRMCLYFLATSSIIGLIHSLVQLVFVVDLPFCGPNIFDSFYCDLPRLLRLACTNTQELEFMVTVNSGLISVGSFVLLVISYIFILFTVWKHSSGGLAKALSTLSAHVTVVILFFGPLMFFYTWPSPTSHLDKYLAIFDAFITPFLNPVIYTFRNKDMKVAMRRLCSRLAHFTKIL
Method in brief: as §1

[9] = target: T3, OR4F3 (Homo sapiens) (UniProt Q6IEY1)
T3 sequence (whole entry): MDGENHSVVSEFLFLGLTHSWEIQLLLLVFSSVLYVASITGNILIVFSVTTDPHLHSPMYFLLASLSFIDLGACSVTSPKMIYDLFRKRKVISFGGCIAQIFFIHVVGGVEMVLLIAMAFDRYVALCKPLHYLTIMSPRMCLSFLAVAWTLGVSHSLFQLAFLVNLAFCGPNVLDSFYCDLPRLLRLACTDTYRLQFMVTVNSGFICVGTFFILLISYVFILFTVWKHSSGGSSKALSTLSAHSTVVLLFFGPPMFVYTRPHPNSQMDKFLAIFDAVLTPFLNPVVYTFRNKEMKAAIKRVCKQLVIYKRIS
Method in brief: as §1

[10] = test system: T4, OR4F3
T4 sequence (whole entry): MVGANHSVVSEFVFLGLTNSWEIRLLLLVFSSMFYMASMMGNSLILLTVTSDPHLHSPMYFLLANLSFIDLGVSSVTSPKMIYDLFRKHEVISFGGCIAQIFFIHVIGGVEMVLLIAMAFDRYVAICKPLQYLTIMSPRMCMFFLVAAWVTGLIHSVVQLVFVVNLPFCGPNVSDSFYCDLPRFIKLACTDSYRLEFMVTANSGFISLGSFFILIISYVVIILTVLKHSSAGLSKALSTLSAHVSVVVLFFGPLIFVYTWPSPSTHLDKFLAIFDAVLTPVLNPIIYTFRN
Method in brief: as §1

[11] = test system: T5, OR4F4
T5 sequence (whole entry): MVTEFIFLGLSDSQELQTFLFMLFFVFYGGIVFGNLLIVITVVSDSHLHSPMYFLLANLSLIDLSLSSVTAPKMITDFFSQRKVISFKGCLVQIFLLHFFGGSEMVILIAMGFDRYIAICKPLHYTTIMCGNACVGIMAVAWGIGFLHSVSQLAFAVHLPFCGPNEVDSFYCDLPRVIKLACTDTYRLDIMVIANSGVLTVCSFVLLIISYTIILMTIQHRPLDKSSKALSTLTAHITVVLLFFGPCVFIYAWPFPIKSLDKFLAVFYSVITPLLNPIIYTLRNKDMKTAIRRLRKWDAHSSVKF
Method in brief: as §1

[12] = target: T6, OR4F6 (Homo sapiens) (UniProt Q8NGB9)
T6 sequence (whole entry): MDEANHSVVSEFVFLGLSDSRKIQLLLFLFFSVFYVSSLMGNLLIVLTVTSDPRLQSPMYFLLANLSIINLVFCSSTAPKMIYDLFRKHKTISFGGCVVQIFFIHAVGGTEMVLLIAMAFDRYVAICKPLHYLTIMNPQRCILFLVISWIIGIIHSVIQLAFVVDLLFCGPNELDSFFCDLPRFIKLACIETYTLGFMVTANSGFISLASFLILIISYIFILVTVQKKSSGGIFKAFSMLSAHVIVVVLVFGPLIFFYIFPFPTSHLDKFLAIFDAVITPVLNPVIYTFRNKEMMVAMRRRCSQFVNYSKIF
Method in brief: as §1

[13] = target: T7, OR4K13 (Homo sapiens) (UniProt Q8NH42)
T7 sequence (whole entry): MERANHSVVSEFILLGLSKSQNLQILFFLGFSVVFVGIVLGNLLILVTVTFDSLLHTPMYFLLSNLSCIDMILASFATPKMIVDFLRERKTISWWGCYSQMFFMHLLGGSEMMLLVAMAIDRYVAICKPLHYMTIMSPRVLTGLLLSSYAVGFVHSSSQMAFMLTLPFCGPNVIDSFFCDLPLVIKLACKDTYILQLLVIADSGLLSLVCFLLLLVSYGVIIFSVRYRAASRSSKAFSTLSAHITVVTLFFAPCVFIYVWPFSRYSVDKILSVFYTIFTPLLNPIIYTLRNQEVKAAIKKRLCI
Method in brief: as §1

[14] = target: T8, OR4K14 (Homo sapiens) (UniProt Q8NGD5)
T8 sequence (whole entry): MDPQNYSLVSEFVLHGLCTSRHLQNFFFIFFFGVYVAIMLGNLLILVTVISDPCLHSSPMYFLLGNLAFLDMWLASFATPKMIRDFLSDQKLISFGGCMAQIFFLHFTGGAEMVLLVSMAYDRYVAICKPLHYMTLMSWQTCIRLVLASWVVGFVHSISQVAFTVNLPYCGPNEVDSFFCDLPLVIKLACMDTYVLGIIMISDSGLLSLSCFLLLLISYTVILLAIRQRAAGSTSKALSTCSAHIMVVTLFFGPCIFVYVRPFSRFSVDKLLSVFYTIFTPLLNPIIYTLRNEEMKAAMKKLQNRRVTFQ
Method in brief: as §1

[15] = test system: T9, OR4K1
T9 sequence (whole entry): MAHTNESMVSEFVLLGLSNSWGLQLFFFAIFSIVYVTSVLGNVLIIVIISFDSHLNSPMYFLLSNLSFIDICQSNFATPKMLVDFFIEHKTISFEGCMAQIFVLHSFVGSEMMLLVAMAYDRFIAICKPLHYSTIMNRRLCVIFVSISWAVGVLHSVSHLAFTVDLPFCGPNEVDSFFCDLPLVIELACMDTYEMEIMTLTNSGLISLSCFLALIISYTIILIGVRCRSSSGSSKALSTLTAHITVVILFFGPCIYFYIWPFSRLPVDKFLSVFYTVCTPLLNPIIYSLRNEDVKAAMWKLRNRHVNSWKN
Method in brief: as §1

[16] = target: T10, OR4K2 (Homo sapiens) (UniProt Q8NGD2)
T10 sequence (whole entry): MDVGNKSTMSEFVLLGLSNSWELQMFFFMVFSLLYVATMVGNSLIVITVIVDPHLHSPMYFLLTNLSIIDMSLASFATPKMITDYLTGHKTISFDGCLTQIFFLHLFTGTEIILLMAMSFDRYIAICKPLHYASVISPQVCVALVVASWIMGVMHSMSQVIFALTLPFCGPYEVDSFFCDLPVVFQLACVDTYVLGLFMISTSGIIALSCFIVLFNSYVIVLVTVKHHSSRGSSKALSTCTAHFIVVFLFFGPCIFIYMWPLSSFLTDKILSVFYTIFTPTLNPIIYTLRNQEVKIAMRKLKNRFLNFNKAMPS
Method in brief: as §1

[17] = test system: T11, OR4K3
T11 sequence (whole entry): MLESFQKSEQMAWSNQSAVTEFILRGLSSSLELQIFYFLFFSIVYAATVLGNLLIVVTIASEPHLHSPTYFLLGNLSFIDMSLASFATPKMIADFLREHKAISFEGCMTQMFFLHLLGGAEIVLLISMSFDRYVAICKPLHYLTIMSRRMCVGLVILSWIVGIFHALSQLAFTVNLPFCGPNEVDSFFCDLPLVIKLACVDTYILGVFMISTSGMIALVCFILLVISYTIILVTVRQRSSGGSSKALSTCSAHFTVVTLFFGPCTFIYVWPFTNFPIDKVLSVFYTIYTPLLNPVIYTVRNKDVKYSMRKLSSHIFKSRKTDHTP
Method in brief: as §1

[18] = target: T12, OR4K5 (Homo sapiens) (UniProt Q8NGD3)
T12 sequence (whole entry): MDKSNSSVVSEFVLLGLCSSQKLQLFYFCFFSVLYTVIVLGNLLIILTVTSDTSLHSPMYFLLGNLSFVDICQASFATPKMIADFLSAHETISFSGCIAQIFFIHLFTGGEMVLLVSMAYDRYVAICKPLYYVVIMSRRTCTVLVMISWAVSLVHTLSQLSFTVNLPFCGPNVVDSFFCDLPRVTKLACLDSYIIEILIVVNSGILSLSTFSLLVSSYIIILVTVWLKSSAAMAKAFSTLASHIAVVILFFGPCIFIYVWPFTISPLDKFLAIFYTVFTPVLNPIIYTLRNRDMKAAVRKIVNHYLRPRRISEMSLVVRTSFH
Method in brief: as §1

[19] = test system: T13, OR4KF
T13 sequence (whole entry): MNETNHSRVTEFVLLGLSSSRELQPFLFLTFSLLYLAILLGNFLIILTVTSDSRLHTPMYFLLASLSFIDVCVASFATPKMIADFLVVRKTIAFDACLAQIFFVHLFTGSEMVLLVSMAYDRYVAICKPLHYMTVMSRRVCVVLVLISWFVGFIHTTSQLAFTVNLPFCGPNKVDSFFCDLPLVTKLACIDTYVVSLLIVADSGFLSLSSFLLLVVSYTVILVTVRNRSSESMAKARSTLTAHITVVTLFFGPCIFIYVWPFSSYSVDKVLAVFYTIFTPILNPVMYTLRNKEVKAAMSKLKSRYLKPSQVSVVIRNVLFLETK
Method in brief: as §1

[20] = test system: T14, OR4KH
T14 sequence (whole entry): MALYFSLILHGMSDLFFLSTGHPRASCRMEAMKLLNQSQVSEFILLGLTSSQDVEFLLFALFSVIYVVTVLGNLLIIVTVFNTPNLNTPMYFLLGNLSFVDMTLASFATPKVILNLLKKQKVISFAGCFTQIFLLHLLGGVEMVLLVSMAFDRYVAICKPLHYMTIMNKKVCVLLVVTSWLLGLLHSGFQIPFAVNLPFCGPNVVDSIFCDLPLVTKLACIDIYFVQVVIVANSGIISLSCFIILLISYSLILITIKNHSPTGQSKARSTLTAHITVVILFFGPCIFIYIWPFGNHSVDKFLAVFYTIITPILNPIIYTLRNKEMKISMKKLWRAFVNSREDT
Method in brief: as §1

SMILES | odorant receptor agonist call [1] | odorant receptor agonist call [2] | odorant receptor agonist call [3] | odorant receptor agonist call [4] | odorant receptor agonist call [5] | odorant receptor agonist call [6] | odorant receptor agonist call [7] | odorant receptor agonist call [8] | odorant receptor agonist call [9] | odorant receptor agonist call [10] | odorant receptor agonist call [11] | odorant receptor agonist call [12] | odorant receptor agonist call [13] | odorant receptor agonist call [14] | odorant receptor agonist call [15] | odorant receptor agonist call [16] | odorant receptor agonist call [17] | odorant receptor agonist call [18] | odorant receptor agonist call [19] | odorant receptor agonist call [20]
CS | inactive | inactive | inactive | inactive | inactive | inactive | inactive | inactive | inactive | inactive | inactive | inactive | inactive | inactive | inactive | inactive | inactive | inactive | inactive | inactive
CCCCOC(C)=O | inactive | inactive | inactive | inactive | inactive | inactive | inactive | inactive | inactive | inactive | inactive | inactive | inactive | inactive | inactive | inactive | inactive | inactive | inactive | inactive
CCC(C)=O | inactive | inactive | inactive | inactive | inactive | inactive | inactive | inactive | inactive | inactive | active | inactive | inactive | inactive | inactive | inactive | inactive | inactive | inactive | inactive
